Measurements: PubChem BioAssay AID2685 (National Center for Advancing Translational Sciences (NCATS), 2010)
Some of the results follow. The main result of the screen is listed elsewhere. These columns were measured beside it and carry no call. Most of these compounds were active or inconclusive in the main read-out, so they are no random draw. The note in brackets gives the kind of curve behind each potency; many fits are weak.

Assay: qHTS Assay for Lipid Storage Modulators in Drosophila S3 Cells;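 as to cell number change: cells counted by Cell Tracker Red CMTPX staining in the red channel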
Conditions: BODIPY lipid droplet fluorescence, 18-24 h; for cell number change: measured here: cell count max response, cells fed with added oleic acid
How it was run: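 Drosophila S3 cells loaded with oleic acid (400 uM, as added) and compounds at several concentrations; lipid droplets imaged by 488-nm laser-scanning cytometry, 500–530 nm intensity and object ratio to cell channel. Percent activity normalized to 20 uM Triacsin C.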

[1] = measured here: cell number channel AC50, cells fed with added oleic acid
[2] = measured here: lipid fluorescence (Fed channel) AC50, cells fed with added oleic acid

SMILES	cell number change [%]	AC50 [1]	AC50 [2]
Cc1nc2ccc(NC(=O)c3ccc(S(=O)(=O)N(C)C)cc3)cc2s1	4.33	0.0058 µM [falling, full curve, poor fit]	–
O=C(N/N=C/c1ccc(Cl)cc1Cl)c1cccc(N2CCCC2=O)c1	-17.9	3.66 µM [rising, partial curve, poor fit]	–
CC1CN(C(=O)c2ccccc2OCc2ccccc2Cl)CC(C)O1 (stereo unspecified)	5.94	–	29.1 µM [rising, single point]
Cc1ccc(-n2ncc3c(SCC(=O)Nc4cc(C)on4)ncnc32)c(C)c1	33.6	0.651 µM [rising, full curve, poor fit]	25.9 µM [rising, single point]
COc1cccc(C(=O)Nc2ccc(C(=O)NCC(C)C)cc2)c1	18.4	–	2.06 µM [rising, partial curve]
Cc1ccc(CN2CCc3[nH]c(=O)[nH]c(=O)c3C2)cc1	36.9	–	–
COc1ccc(C(CNC(=O)COc2ccc(F)cc2Cl)N2CCOCC2)cc1 (stereo unspecified)	–	3.26 µM [rising, single point]	–
COc1ccc([C@H]2CC(=O)C=C(c3cccc(Cl)c3)C2)cc1	-2.26	0.92 µM [falling, single point]	0.731 µM [falling, single point]
CCOCCCNC(=O)c1c(-c2ccccc2)noc1C	–	–	14.6 µM [falling, partial curve]
O=C(NCC1CCCO1)c1ccc2nc(N3CCCCC3)sc2c1 (stereo unspecified)	-0.553	–	–
CN(C1CCCCC1)S(=O)(=O)c1ccc(C(=O)Nc2sc3c(c2C(N)=O)CC(C)(C)NC3(C)C)cc1	21.7	–	–
CN(c1ccc(C(=O)NCCSCc2ccco2)cc1)S(C)(=O)=O	-22.3	–	–
CC(=O)Nc1ccc(NC(=O)C(C)OC(=O)CCCc2c[nH]c3ccccc23)cc1 (stereo unspecified)	47.1	13 µM [rising, partial curve]	–
COc1ccc(/C=N/NC(=O)CN2CCSCC2)c(OC)c1	-47.5	2.91 µM [rising, single point]	6.51 µM [rising, single point]
COc1cc2c(cc1NC(=O)CC1SC(N3CCCC3)=NC1=O)oc1ccccc12 (stereo unspecified)	-14.7	–	0.00461 µM [rising, full curve, poor fit]
COc1cccc(/C=C/C(=O)OCC(=O)NC(=O)NC2CCCC2)c1	-6.27	6.51 µM [falling, single point]	–
CC(=O)NC12CC3CC(C1)CC(C(=O)NCc1ccc(C)cc1)(C3)C2	12.7	–	29.1 µM [rising, single point]

2 entries from above, with each value named:
CCOCCCNC(=O)c1c(-c2ccccc2)noc1C
  AC50 [2]: 14.6 µM [falling, partial curve]
O=C(NCC1CCCO1)c1ccc2nc(N3CCCCC3)sc2c1 (stereo unspecified)
  cell number change [%]: -0.553
